The campaign covered roughly 330,000 compounds. About 7,700 (2.3%) were called active. Inconclusive means that the source gave no clear call. Such entries were picked first, then a sample of the others. Calls come from the whole dose curve; as a rule, active = well fitted inhibition curve with a large enough effect; inconclusive = small, poorly fitted or top-dose-only effect, or effect the other way; inactive = flat fitted curve, though single readings scatter. Potencies beside an inconclusive call are fits to weak or partial responses and may not hold up.
test: qHTS screen for small molecules that inhibit ELG1-dependent DNA repair in human embryonic kidney (HEK293T) cells expressing luciferase-tagged ELG1; settings: HEK293T ELG1-luciferase reporter, luminescence, 16 h, DNA damage induced by 5-fluorouridine; activity change, negative = inhibition: at 46.1 µM (top of the series); note: nearly all actives have a fitted effect of over 55% in size
In short: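 In this reporter screen, reduction of luminescence relative to DMSO vehicle indicated activity. Compounds and 5-fluorouridine were added together to 2,000 cells per well, incubated for 16 hr at 37 °C, then developed with ONE-Glo.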
% is set by controls: 0 for no effect and ±100 for the full control effect; potency is the fitted concentration of half-maximal effect.

Q: Which “activity change, negative = inhibition” value does the source give for Cc1ccc(C)c(C(=O)COC(=O)CCCC(=O)Nc2cc(C(F)(F)F)ccc2Cl)c1 here?
A: inactive: 23.5%

Q: Which “activity change, negative = inhibition” value does the source give for Cc1ccc(N2C(=O)CC(Sc3ccccc3C(=O)O)C2=O)cc1C (stereo not given) here?
A: inactive: 0.0861%

Q: With O=C(NC1CCCCC1)C1CCCN1S(=O)(=O)c1ccc(F)cc1 (stereo not given) as the molecule, how does the Potency read?
A: inconclusive: 6.51 µM [inhibitor, single point]

Q: With O=c1[nH]c(C2CCCN(S(=O)(=O)Cc3ccccc3)C2)nc2c1nnn2Cc1cccc(Cl)c1 (stereo not given) as the molecule, how does the Potency read?
A: inconclusive: 16.4 µM [inhibitor, single point]

Q: Which “activity change, negative = inhibition” value does the source give for CN(C)c1ccc(/C=N/n2c(COc3ccccc3)n[nH]c2=S)cc1 here?
A: inactive: -25.7%

Q: For O=C(Cn1cnc2c(cnn2-c2ccc(F)cc2)c1=O)N1CCCc2ccccc21, which Potency is on record?
A: inconclusive: 14.6 µM [inhibitor, partial curve, poor fit]

Q: Which Potency does the source give for Cc1cc(-c2ccccc2)nc(N(C)NC(=O)c2c(F)cccc2F)c1S(C)(=O)=O here?
A: active: 18.4 µM

Q: Which Potency does the source give for CCOc1ccc(CCNc2nc3ccc(C)cc3n3cnnc23)cc1OCC here?
A: inconclusive: 29.1 µM [inhibitor, single point]

Q: For COc1ccc(/C(N)=N/OC(=O)CCCc2ccccc2)cc1, which Potency is on record?
A: inconclusive: 16.4 µM [activator, single point]

Q: With Cc1ccc(CN2CCN(Cc3cnn(-c4ccc(Cl)cc4)c3)CC2CCO)o1 (stereo not given) as the molecule, how does the Potency read?
A: inconclusive: 29.1 µM [inhibitor, single point]

Q: For Cc1ccc(C)c(NC(=O)/C(C#N)=C/c2ccc(Sc3nncn3C)c([N+](=O)[O-])c2)c1, which Potency is on record?
A: inconclusive: 20.6 µM [activator, single point]

Q: Which Potency does the source give for CCOC(=O)c1cccc(NC(=O)Nc2ccc(OCC)cc2)c1 here?
A: inconclusive: 3.66 µM [activator, partial curve]

Q: For COc1cc(Cl)c(C)cc1NC(=O)CN1C(=O)C2CCCCC2C1=O (stereo not given), which “activity change, negative = inhibition” value is on record?
A: inactive: 13%

Q: With Cc1cc(OCC(=O)Nc2ccccn2)c2c(C)cc(=O)oc2c1 as the molecule, how does the Potency read?
A: inconclusive: 29.1 µM [activator, single point]

Q: With CSCCC(=O)N1CCCC(CO)(CCCc2ccccc2)C1 (stereo not given) as the molecule, how does the “activity change, negative = inhibition” value read?
A: inactive: -3.95%

Q: Which Potency does the source give for CC1CCN(C(=O)c2ccc(S(=O)(=O)Cc3ccccc3F)c([N+](=O)[O-])c2)CC1 here?
A: active: 20.6 µM

Q: With Cc1cc(C(C)(C)C)cc(C)c1Cn1c2[n+](c3ccc(C(F)(F)F)cc31)CCCCC2 as the molecule, how does the Potency read?
A: active: 14.6 µM

Q: For Cc1ccc(S(=O)(=O)N2CCN(S(=O)(=O)N3CCCCC3)CC2)c(C)c1, which Potency is on record?
A: active: 16.4 µM

Q: For CCSc1ccc2cc(OC)ccc2[n+]1CC, which Potency is on record?
A: inconclusive: 29.1 µM [activator, single point]

Q: Which “activity change, negative = inhibition” value does the source give for O=C(CN(Cc1ccccc1F)S(=O)(=O)c1ccc(Cl)cc1)NCC1CCCO1 (stereo not given) here?
A: inactive: -17.5%

Q: Which Potency does the source give for CCSc1nnc(NC(=O)C(C)C)s1 here?
A: inconclusive: 18.4 µM [activator, single point]

Q: Which Potency does the source give for O=C(NCCCN1CCOCC1)c1ccc2c(c1)N(Cc1cccc(F)c1)C(=O)c1ccccc1S2 here?
A: inconclusive: 29.1 µM [inhibitor, single point]

Q: With Cn1c(=O)[nH]c(=O)c2c1nc(SCC(N)=O)n2Cc1cccc(Br)c1 as the molecule, how does the Potency read?
A: inconclusive: 10.3 µM [activator, partial curve]

Q: For CC(=O)c1c(C)[nH]c(C(=O)COC(=O)C2CC2)c1C, which Potency is on record?
A: inconclusive: 20.6 µM [activator, partial curve, poor fit]

Q: With CC(C)(C)NC(=O)C(c1cccnc1)N(C(=O)c1csnn1)c1ccccc1 (stereo not given) as the molecule, how does the Potency read?
A: inconclusive: 4.61 µM [inhibitor, partial curve, poor fit]

Q: Which Potency does the source give for Cc1ccc(S(=O)(=O)n2nc(-c3ccc(Cl)cc3)nc2NCc2ccco2)cc1 here?
A: inconclusive: 4.47 µM [activator, full curve, poor fit]

Q: For O=C(Nc1ccncc1)c1cc2ccccc2o1, which Potency is on record?
A: inconclusive: 8.2 µM [activator, partial curve]

Q: For Cc1ccc(C(=O)CNc2ccc(Cl)cc2)cc1, which Potency is on record?
A: inconclusive: 29.1 µM [activator, single point]

Q: With COc1ccc(-c2nc3c(s2)CN(S(C)(=O)=O)CC3)cc1OC as the molecule, how does the Potency read?
A: inconclusive: 20.6 µM [activator, single point]

Q: Which “activity change, negative = inhibition” value does the source give for CCOc1cccc(C=Nc2cc(C)cc(C)c2O)c1O here?
A: inactive: -24.1%

Q: Which “activity change, negative = inhibition” value does the source give for CN(Cc1cccc(Cl)c1)C(=O)C1CSC2(C)CCC(=O)N12 (stereo not given) here?
A: inactive: 2.62%

Q: For O=[N+]([O-])c1ccc(/C=N/Nc2nc(N3CCOCC3)nc(N3CCOCC3)n2)cc1, which Potency is on record?
A: inconclusive: 1.3 µM [inhibitor, full curve]

Q: With Cc1ccc(C2C(C#N)=C(N)Oc3c2oc(CO)cc3=O)o1 (stereo not given) as the molecule, how does the “activity change, negative = inhibition” value read?
A: inactive: 5.3%

Q: With CCSc1nnc2c(n1)OC(C)(C)Nc1ccccc1-2 as the molecule, how does the Potency read?
A: inconclusive: 16.4 µM [activator, single point]

Q: For CCOc1cc(CNc2ccc(O)cc2)cc(Br)c1OCc1ccccc1F, which Potency is on record?
A: inconclusive: 14.6 µM [inhibitor, partial curve]

Q: With Cc1ccc(-c2c[n+]3c(n2-c2ccccc2)SCC3)cc1 as the molecule, how does the Potency read?
A: inconclusive: 4.61 µM [inhibitor, partial curve]

Q: For COc1ccc(NC(=O)Cn2nnc(C(=O)NCc3cccs3)c2N)c(OC)c1, which Potency is on record?
A: inconclusive: 18.3 µM [inhibitor, partial curve, poor fit]

Q: For COc1ccc(C(=O)NCCSc2ccccn2)cc1, which Potency is on record?
A: inconclusive: 3.26 µM [activator, full curve]

Q: For Cc1cc(-c2ccccc2)c2c(=O)[nH][nH]c2n1, which “activity change, negative = inhibition” value is on record?
A: inactive: 0.107%

Q: Which Potency does the source give for CN(C)C(CNC(=O)c1ccc(NC(=O)c2cccs2)cc1)c1ccccc1 (stereo not given) here?
A: inconclusive: 20.6 µM [activator, partial curve]

Q: With Cc1ccccc1NC(=O)C1CCN(C(=O)N2CCOc3ccccc32)CC1 as the molecule, how does the “activity change, negative = inhibition” value read?
A: inactive: -0.915%

Q: Which Potency does the source give for CCOc1cc(N2CCOCC2)c(OCC)cc1NC(=O)COC(=O)C1CCCN1S(=O)(=O)c1ccccc1F (stereo not given) here?
A: inconclusive: 4.47 µM [inhibitor, partial curve, poor fit]

Q: For COc1ccc(OC)c(-c2cc(C(=O)N3CCc4ccccc4C3)no2)c1, which “activity change, negative = inhibition” value is on record?
A: inactive: -8.62%

Q: Which “activity change, negative = inhibition” value does the source give for O=C(c1ccccc1)C(O)C(c1ccccc1)N1CCOCC1 (stereo not given) here?
A: inactive: -1.33%

Q: Which Potency does the source give for CCCC(=O)OCCNc1cc(Sc2nc3ccccc3[nH]2)c2nonc2c1[N+](=O)[O-] here?
A: inconclusive: 9.2 µM [inhibitor, partial curve]

Source: PubChem BioAssay AID504467 (National Center for Advancing Translational Sciences (NCATS), 2011)
